Measurements as given in patent US11648248B1 (King Abdulaziz University, priority 2022, dated 2023).
In brackets after ≈: the same amount, converted by molar mass. At least one read-out could not be matched to a standard name with certainty.

Key:
[1] = tested on: Methicillin-resistant Staphylococcus aureus NRS384 (MRSA USA300); test: MIC broth microdilution, initial screening; assay type: cell-based; settings: 18-20 hours
Method: (§1) The minimum inhibitory concentrations (MICs) of the tested compounds and control drugs (linezolid, vancomycin, gentamicin (antibiotics) and fluconazole and 5-fluorocytosine (5-FC) (antifungal drugs)) were determined using the broth microdilution method, according to guidelines outlined by the Clinical and Laboratory Standards Institute (CLSI, Clinical and Laboratory Standards Institute, Methods for antimicrobial susceptibility testing of anaerobic bacteria; approved standard, M11-A8. 8th ed., 2012; CLSI, Clinical and Laboratory Standards Institute. M27-A3 Reference Method for Broth Dilution Antifungal Susceptibility Testing of Yeasts; Approved Standard—Third Edition, Wayne, Pa., 2008) against clinically-relevant bacterial (methicillin-resistant Staphylococcus aureus (MRSA), Escherichia coli, and C. difficile strains) and fungal (Candida albicans) strains. S. aureus and E. coli were grown aerobically overnight on tryptone soy agar plates at 37° C. C. difficile was grown anaerobically on brain heart infusion supplemented agar at 37° C. for 48 hours. C. albicans was grown aerobically overnight on yeast peptone dextrose (YPD) agar plate at 35° C. Afterwards, a bacterial solution equivalent to 0.5 McFarland standard was prepared and diluted in cation-adjusted Mueller-Hinton broth (CAMHB) (for S. aureus and E. coli) to achieve a bacterial concentration of about 5×10^5 CFU/mL. C. difficile was diluted in brain heart infusion supplemented broth, supplemented with yeast extract, hemin and vitamin K to achieve a bacterial concentration of about 5×10^5 CFU/mL. C. albicans was diluted in Roswell Park Memorial Institute (RPMI 1640) medium with glutamine and without bicarbonate (GIBCO by Life Technologies, Green Island, N.Y., USA) which was buffered to pH 7.0 with 0.165 M of [3-(N-morpholino) propanesulfonic acid] (MOPS) (DOT Scientific Inc., Burton, Mich., USA) to achieve a fungal concentration of about 1.5×10^3 CFU/mL. Compounds and control drugs were added in the first row of the 96-well plates and serially diluted with the corresponding media containing bacteria. Plates were then incubated aerobically at 37° C. for 18-20 hours (for S. aureus and E. coli). C. difficile was incubated anaerobically at 37° C. for 48 hours. […]
(§2) The minimum inhibitory concentrations (MICs) of the tested compounds and control drugs; linezolid, vancomycin, gentamicin (antibiotics) and fluconazole and 5-fluorocytosine (5-FC) (antifungal drugs) were determined using the broth microdilution method, according to guidelines outlined by the Clinical and Laboratory Standards Institute (CLSI)^1, 2, 3 against clinically-relevant bacterial (methicillin-resistant Staphylococcus aureus (MRSA), Escherichia coli and Clostridium difficile strains) and fungal (Candida albicans) strain. […]

[2] = tested on: Clostridium difficile (ATCC-BAA1870); test: MIC broth microdilution, initial screening; assay type: cell-based; settings: anaerobic, 48 hours
Method: as §1, §2

SMILES	minimum inhibitory concentration (MIC) S. aureus (MRSA USA300) [1] [µg/mL]	minimum inhibitory concentration (MIC) C. difficile (ATCC-BAA1870) [2] [µg/mL]
O=C(Nc1ccc(Oc2ccc(=O)[nH]n2)cc1)Nc1ccc(Cl)c(C(F)(F)F)c1 [MY31, 1-(4-chloro-3-(trifluoromethyl)phenyl)-3-(4-((6-oxo-1,6-dihydropyridazin-3-yl)oxy)phenyl)urea]	0.5 (≈ 1.18 µM)	1 (≈ 2.35 µM)
O=C(Nc1ccc(Oc2ccc(=O)[nH]n2)cc1)Nc1ccc(Cl)c(Cl)c1 [MY24, 1-(3,4-dichlorophenyl)-3-(4-((6-oxo-1,6-dihydropyridazin-3-yl)oxy)phenyl)urea]	1 (≈ 2.56 µM)	1 (≈ 2.56 µM)
